Assay [1] addresses T1, endogenous Zfp36 with a knocked-in V5 epitope tag (Zfp36-V5) (mouse (endogenous in BMDMs of the knock-in mouse)) (UniProt P22893).
T1 sequence: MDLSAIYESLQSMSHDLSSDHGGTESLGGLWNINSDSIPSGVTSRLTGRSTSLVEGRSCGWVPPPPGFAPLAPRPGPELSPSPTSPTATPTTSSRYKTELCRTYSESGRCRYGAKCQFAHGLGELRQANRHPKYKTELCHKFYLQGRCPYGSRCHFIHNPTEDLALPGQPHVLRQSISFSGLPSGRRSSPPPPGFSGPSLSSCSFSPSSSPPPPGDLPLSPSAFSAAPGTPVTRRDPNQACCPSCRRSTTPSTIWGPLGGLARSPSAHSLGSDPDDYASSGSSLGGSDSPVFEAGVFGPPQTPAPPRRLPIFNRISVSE
Put plainly: co-IP; BMDMs from Zfp36-V5 mice transduced with an empty retroviral vector or one expressing Zfp36-mF, LPS for 4 hr; IP with an anti-V5 antibody with RNaseA (200 ng/ml); Western blot of endogenous Pabpc1, quantified by ImageJ.

Protein sequences, listed by entry. Tags and fused reporters are not part of them.
UniProt P29341: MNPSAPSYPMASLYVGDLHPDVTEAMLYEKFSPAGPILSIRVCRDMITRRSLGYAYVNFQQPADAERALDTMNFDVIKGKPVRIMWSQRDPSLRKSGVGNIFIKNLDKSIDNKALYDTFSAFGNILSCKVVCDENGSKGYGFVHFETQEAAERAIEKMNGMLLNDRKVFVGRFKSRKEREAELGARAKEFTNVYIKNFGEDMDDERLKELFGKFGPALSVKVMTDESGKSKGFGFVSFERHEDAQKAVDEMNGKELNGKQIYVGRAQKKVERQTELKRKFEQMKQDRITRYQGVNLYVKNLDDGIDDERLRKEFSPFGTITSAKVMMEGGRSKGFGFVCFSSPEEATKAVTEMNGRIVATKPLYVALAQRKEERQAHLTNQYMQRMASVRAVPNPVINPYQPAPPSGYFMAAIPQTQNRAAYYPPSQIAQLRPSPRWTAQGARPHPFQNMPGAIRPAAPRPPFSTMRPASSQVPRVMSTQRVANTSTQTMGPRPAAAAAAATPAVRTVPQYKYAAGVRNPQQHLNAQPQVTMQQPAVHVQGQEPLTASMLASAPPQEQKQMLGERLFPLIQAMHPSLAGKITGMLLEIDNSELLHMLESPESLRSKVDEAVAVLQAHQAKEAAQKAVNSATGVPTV

For assay [2], the target named is T1, endogenous Zfp36 with a knocked-in V5 epitope tag (Zfp36-V5) (mouse (endogenous in BMDMs of the knock-in mouse)). Briefly: co-IP; IP with an anti-V5 antibody from BMDMs of Zfp36-V5 or wild-type mice, 100 ng/ml LPS for 4 hr, with or without RNaseA; Western blot. A general note: Immunoblotting shows a protein as a band on a membrane.
In assay [3] the target is T2, FLAG-tagged wild-type Zfp36 (UniProt P22893).
T2 sequence: T1 sequence
Briefly: co-IP; 293T cells co-transfected with HA-Pabpc1 and Zfp36-FLAG; IP with an anti-FLAG antibody or IgG in the presence or absence of RNase1 (0.5 U/ul); Western blot.

Assay [4] has as its target T3, FLAG-tagged Zfp36-mF (Zfp36 amino acids 39 to 196 with F118N), in 293T cells (UniProt P22893).
T3 sequence: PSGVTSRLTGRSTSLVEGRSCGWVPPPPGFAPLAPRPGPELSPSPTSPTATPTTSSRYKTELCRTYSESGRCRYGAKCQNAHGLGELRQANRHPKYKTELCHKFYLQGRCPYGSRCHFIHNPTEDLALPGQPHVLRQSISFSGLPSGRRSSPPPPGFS
Put plainly: co-IP; 293T cells co-transfected with FLAG-tagged Zfp36 constructs and HA-tagged Pabpc1; IP with an anti-FLAG antibody or an IgG, with (or also without) RNaseA; Western blot.

In assay [5] the target is T4, FLAG-tagged RNA-binding-deficient Zfp36 mutant Zfp36(F118N) (UniProt P22893).
T4 sequence: T1 sequence with F118N
Described as above.

Assay [6] deals with T2, FLAG-tagged wild-type Zfp36. The description is as above.
Assay [7] deals with cytoplasmic poly(A)-binding protein 1 (Pabpc1), endogenous (mouse (endogenous in BMDMs)) (UniProt P29341). Put plainly: co-IP; BMDMs from Zfp36-V5 mice transduced with an empty retroviral vector or one expressing Zfp36-mF, LPS for 4 hr; IP with an anti-V5 antibody with RNaseA (200 ng/ml); Western blot of endogenous Pabpc1, quantified by ImageJ.

Positions count from the first letter of the chain named. These are yes or no findings as the source states them, for the method shown. In cells and extracts the contact can be indirect. Some entries that bind do so weakly or less than the wild type. For some of these results: Tags and fused reporters may be left off the sequences shown.

Regarding “cytoplasmic poly(A)-binding protein 1 (Pabpc1), endogenous (from UniProt P29341 1-636)”, the binding result in assay [1] and in assay [2] was “binds” throughout.
As for “HA-tagged Pabpc1 (from UniProt P29341 1-636)”, the binding entry in assay [3], in assay [4], in assay [5] and in assay [6] was “binds” in each case.

B1: Zfp36-mF fragment expressed in BMDMs from a retroviral vector (domain or fragment, UniProt P22893 39-196)
chain: T3 sequence
B1: the binding result in assay [7] is given as “binds”.
